Over roughly 33,000 sequences, “E-score (-0.5 to 0.5)” has its median near -0.016; the highest 2% begin near 0.3. The list shows a part of the results.
Biological target: T1, Yer184c (UniProt P39961)
T1 sequence: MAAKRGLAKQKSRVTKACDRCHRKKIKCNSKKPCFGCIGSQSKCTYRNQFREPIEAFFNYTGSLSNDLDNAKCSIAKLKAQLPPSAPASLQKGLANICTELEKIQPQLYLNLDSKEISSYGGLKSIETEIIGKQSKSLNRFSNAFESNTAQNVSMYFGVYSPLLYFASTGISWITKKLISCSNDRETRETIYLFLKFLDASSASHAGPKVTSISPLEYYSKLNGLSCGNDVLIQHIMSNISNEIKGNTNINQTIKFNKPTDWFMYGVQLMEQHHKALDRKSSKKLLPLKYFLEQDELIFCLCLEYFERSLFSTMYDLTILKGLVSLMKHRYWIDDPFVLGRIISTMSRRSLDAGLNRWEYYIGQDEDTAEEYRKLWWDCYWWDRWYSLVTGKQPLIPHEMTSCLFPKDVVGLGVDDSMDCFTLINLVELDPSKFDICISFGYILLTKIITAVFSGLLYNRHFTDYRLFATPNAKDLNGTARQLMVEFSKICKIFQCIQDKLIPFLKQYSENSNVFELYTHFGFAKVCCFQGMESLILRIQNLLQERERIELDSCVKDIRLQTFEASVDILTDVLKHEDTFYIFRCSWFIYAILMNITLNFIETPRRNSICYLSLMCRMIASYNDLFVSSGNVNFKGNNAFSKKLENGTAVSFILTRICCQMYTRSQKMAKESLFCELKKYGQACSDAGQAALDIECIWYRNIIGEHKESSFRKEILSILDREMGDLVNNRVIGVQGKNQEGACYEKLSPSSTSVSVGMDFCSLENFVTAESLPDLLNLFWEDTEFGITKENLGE
Assay: PBM E-score (8-mer binding enrichment) (E-score (-0.5 to 0.5)); higher = stronger / more preferred TF binding
Conditions: protein concentration: 100 nM; construct: GST-full length
How it was run: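 Using PURExpress in vitro transcription/translation, GST-tagged yeast transcription factors were made in full-length or DNA-binding-domain form. These were applied at about 100-200 nM to double-stranded universal all-10-mer Agilent arrays, and bound protein was detected with fluorescent anti-GST. Scans were normalised with masliner before the Universal PBM Analysis Suite assigned E-scores to ungapped eight-base words pooled with their reverse complements.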

Sequence	PBM E-score
AAGCACTC	-0.0537
GCGGAGCA	0.0321
ACATCTTA	-0.0687
AATTTCAC	0.0995
ACTCGTCT	0.126
CGCATAGC	-0.222
ACGAAGAT	0.119
ACACTGTC	-0.088
CCCACGAC	-0.199
TCGGGGAA	0.088
CGGGTTAG	-0.175
CCAACTCC	0.0474
AATTGAGC	-0.111
GAGTGAGC	-0.0659
CGAGGGAA	-0.041
CTATTGGC	-0.232
GGGAACAA	0.158
AAGGTCAG	-0.139
AGTCCGCG	0.0709
ATAGTGTA	0.0783
GGGATACC	-0.156
CACAAGAA	0.202
AAGCAAAC	0.0902
AAGCTTCT	-0.0165
AGTTTTCA	0.114

Sequence	PBM E-score
AGGATGGG	-0.248
ACGCGAGT	-0.0923
CATAGCAG	-0.293
GGTCGACA	-0.0692
AGATATAG	0.0793
AGGTCTAG	-0.209
GATACCAC	0.103
ACGAGCTC	0.117
TGTCTGAA	0.00762
ACCATTCC	0.0171
ACGGACAG	0.0127
GAGCCGGA	0.328
AGCAAGGG	-0.0678
AAAGAACG	0.0238
CTTTGTAA	0.234
AACGTACC	-0.102
AGTAACCG	0.117
CGTTGGAA	0.0607
AACATTGC	-0.138
CCTCCCCA	-0.218
AACTCAGC	-0.0339
CGTAGGGA	-0.174
CAATGAAA	-0.0299
GGGATTAC	-0.128
GTCATCCA	-0.0903

Sequence	PBM E-score
ATTCGGCC	0.292
TATGCATA	0.0271
CTCAGAGA	-0.115
TGGTTAAA	0.114
ACTTTCCA	-0.0203
CATTTAGA	0.0616
CGCACATC	-0.149
CTCTCGTC	-0.101
AATGGCCG	0.0612
ATATCGTG	0.0974
AAGGAACA	0.0625
GAAGTGCC	-0.00228
ACAGAGGG	-0.217
ATTGTATC	0.154
ATCAACCG	0.132
CCCCAGGC	-0.218
CTCACGGA	0.152
ATTGGGAC	-0.0118
ACACTGCC	0.144
GTGAATAA	0.00485
ATGCTTTG	0.233
AGGACCCT	-0.055
AGACACAA	0.215
CGTAAAAA	0.0901
ATAATTAT	0.386

Sequence	PBM E-score
CCTCTACC	-0.163
ATAAATGC	0.0918
CTTGTGCC	-0.161
ACCTTTCT	-0.0725
AATCAGGC	0.00448
GTTAAAGA	0.114
GATTGAGC	0.109
ACCCTCCT	-0.184
CAGTAGCA	-0.0779
ATGGCGAG	-0.161
CAGCCGTA	0.142
ACGTACGA	-0.299
AGTATGGA	0.11
AGCCCGTG	-0.14
CACGATGA	0.00195
GGGCCGGA	0.244
GGTGCAAA	0.0127
ATACCAGA	-0.0381
ACCAGACG	-0.149
GCATTCTA	0.0364
CACCCCCA	-0.206
CGAAAGGA	0.0735
AAAGCACG	-0.11
AAAGCGAG	0.102
AAGACCTG	-0.0984

Sequence	PBM E-score
CCAAACAC	0.0344
GCGTGGGA	-0.201
AACCGCTG	-0.0376
AATACCAG	0.0542
ACGTGTCC	-0.091
CTAGCTGA	-0.0217
AGTTATCC	0.14
TGCGGGAA	0.225
GAAATTGA	0.16
GCTCAACC	-0.0442
AGTAAGAA	0.15
AAGAGAAA	-0.0318
ACTGTGCG	-0.116
ATTGTGTG	-0.151
ACCTCCGA	0.0892
CACCCCCG	-0.192
CCCACACG	-0.0454
AGGTTTTG	-0.0473
ACCGGTGA	0.0385
GCCCTCCA	-0.378
ATCTACCC	-0.0264
CCATTACG	-0.224
ACAACTCT	0.0367
ACAACTGA	0.0349
AACACAAC	0.206

Sequence	PBM E-score
AAAGCAAT	0.166
TGTCCTAA	0.0311
GAAGCTAC	0.121
AAATACCA	0.15
AGAGTATC	0.0154
TACGTATA	0.119
AAGGGACA	-0.0615
GGCTTACA	0.0186
GGATGGCA	0.145
GGGGCGAA	-0.138
CCGAAGCG	0.177
AAGGGAAA	0.0001
ACGAGGCC	-0.12
AACGGGGG	-0.269
ACTTCCAC	-0.0554
GCTTTCAC	-0.0781
ATGGTGTG	-0.0965
ATGTTGCG	0.0282
CATACTAG	0.052
AGATCAAC	-0.0455
AGGTACCA	-0.106
ATCTAAGC	-0.172
ATCCAACA	0.0993
CCTGTATC	-0.00733
GCCGAGTA	0.262

Sequence	PBM E-score
AATTGAGG	-0.0637
GCCCAAGA	-0.218
AAGATCCT	0.0626
ATATATCA	0.115
GTGCATAA	0.0831
GTGGTCCA	-0.0671
ACCAAACT	-0.1
ACCATGAA	0.174
AGTTGGCC	-0.179
GCTTCCAC	-0.0352
CGGGCGCC	0.05
ATGCCAGA	0.0873
AGAGGGGC	-0.158
AATCACCC	0.01
GCTGTAAC	0.0846
AAAGATAC	0.0833
ACCGCCTC	-0.132
AAGGCAAC	0.0867
ACGGGACA	0.0644
CAGATTTA	0.133
ACAGATCT	0.00119
AAGGTCGC	-0.0692
CTATTCAG	-0.0636
TACCGCTA	-0.167
TAGCCGAA	0.276

Sequence	PBM E-score
CGTGTGGA	-0.122
CTTAGTCC	0.0476
TCACTAGA	0.0233
AGAACCGC	0.183
AGACACTC	0.0334
CAGTAATG	-0.0116
ATACTCTA	0.0257
GTCGCCGA	0.219
AACCCGTC	-0.15
GCAGTAAC	-0.167
ACTTCAAC	0.144
AAAAACTA	0.221
GAGACACA	0.0619
ATTAGATG	0.208
CATTCAAC	0.0692
CATCCGGC	0.358
TAAGGGAA	-0.174
TTAAAGAA	0.134
CGTTATAC	-0.11
ACACCCAC	-0.108
CCTCGGCC	0.257
CAAATAAG	0.069
AGTAACTA	0.173
AAGTCGTA	-0.236
ATATATCG	0.312

Sequence	PBM E-score
GGGGGCAA	-0.376
ACTCCCTG	-0.281
CAGACCTC	-0.149
CAGGGCAA	-0.128
AGTCAACA	0.0316
AGAGCATC	-0.0427
GGCGGCGA	0.0554
TACGGCGA	0.189
GTACAATA	0.188
CCGAGTAC	0.161
CCTATAAC	-0.291
CAAAATAG	-0.122
AGCATGGA	-0.123
AGCGACAG	-0.0265
AACGTAAC	0.0313
CATCAAGA	0.0421
AAAAGTCT	-0.0201
TGAATACA	0.197
AGCTCCTG	-0.209
TGAGTTAA	0.117
AATAAAGG	-0.187
CCCAAGAG	-0.17
AGGGCACC	-0.34
AGAAGCCG	0.19
GCTAGTCA	-0.279

Sequence	PBM E-score
AGCGACTC	-0.194
GTGGTGTA	-0.0193
AATAAATA	0.414
GGTGAAAA	0.232
CGCAGAGA	-0.249
CACCCGAG	-0.0578
AGCTATTC	-0.0947
ACTTGGCT	-0.154
GGCGCTCA	-0.053
CTAACAGA	0.179
GATCTCCC	-0.191
ACAACAAT	0.0345
ATGCAGTC	-0.171
GCAGGCCA	0.0121
GAATATGA	0.0575
AGGGTCTA	-0.11
GAAAGAGC	-0.0552
CCCAAACG	-0.17
ATGCACGG	-0.0666
CCCACGGC	-0.13
ATTCAGCC	0.062
ACGGGGTC	-0.177
ATCCCACA	-0.261
ACGGCGCA	0.118
GGTGTAAC	0.124

Sequence	PBM E-score
CGAAAGAC	0.14
CATTAGTC	0.0751
ACCGTTGG	-0.244
ACATGAGG	-0.189
CTTTTACA	0.178
ACAACCCA	-0.0161
AGTGCATC	-0.108
AAGGGAGG	-0.274
AAGGCGGA	0.00368
GTAGTTGA	0.0649
CGTCGACG	-0.147
CCAGGATA	-0.0425
CATGCGGA	-0.0112
AGTGCACC	-0.0522
ACACACAG	0.0494
ACGTTATA	0.126
ATGATGAG	0.0229
CAGCACGC	0.0884
CGCACCCA	-0.264
GTCTACTA	-0.00492
ACAACGGC	0.124
CGCTTCAG	-0.0892
GCACCTCA	0.0813
CATCTTAA	0.0283
CGAGGTAG	-0.2

Sequence	PBM E-score
CTCAACGC	-0.232
AACCTGAG	-0.132
AAATGACG	0.0459
CGGTGATA	0.105
AACCTCCC	-0.158
GGAATTTA	0.181
AAGCAACT	0.12
CTATCGCC	-0.124
CAGATTCC	0.0126
CGCTAATC	-0.0149
CCGTTAGC	-0.0068
AAAAAACG	0.24
ATACAATA	0.275
CATGAGAG	-0.026
ACCCTCGC	-0.191
ACACCTCC	-0.113
AGGCGTTG	-0.11
GTGGATCA	-0.254
ACCAATCT	-0.114
CTGATGAC	-0.144
GCGGATGA	0.125
ATCAGAAG	-0.0418
AGGCAGCG	-0.209
CACCTCAC	-0.0148
CTTGTATC	0.0882

Sequence	PBM E-score
GCCGGACC	0.214
GATGTCCA	0.117
TGAGTGAA	-0.205
ATCCCTTG	-0.223
GTAGGGCA	-0.106
CAAGGAAG	0.085
GAGATACC	0.0999
AAATCGTG	0.249
GTGAAAGA	0.15
TACCGCGA	0.172
CTGACCTC	-0.177
AGTAGTTG	0.00555
CTAACTTA	0.129
GCACCTGC	-0.0805
GAACCAGC	0.0888
ATAGTGTG	0.0766
CACGGATC	0.256
ACCTAAAT	0.0509
GGGTCTAC	-0.06
GGTCAGGA	-0.00348
CTTCCTAC	-0.341
GGATAGCA	0.152
CTGTTAGA	-0.0394
AAATGGTC	0.0546
TACCGACA	0.179

Sequence	PBM E-score
ATCTCAGC	0.0216
AAAGCCAT	0.105
CGCATTCC	-0.319
CACGGCAA	0.199
CACAGGGC	-0.271
AACATCAG	0.119
TACGGAAA	0.362
CGTGCCCA	-0.0799
ATCGCAGA	-0.132
ACTAAGCG	-0.0208
GTGAGTGA	-0.0825
ACCCTAAC	-0.0425
AATGATAG	0.142
ATCGTTTG	0.28
GCCAAAGC	-0.136
GACTACAC	-0.0534
GCAAGACA	-0.0345
GTTAATAA	0.262
CTGTCGAC	-0.154

71 entries from above, set out differently:

| Sequence | PBM E-score |
| --- | --- |
| GCGGAGCA | 0.0321 |
| AATTGAGC | -0.111 |
| CGAGGGAA | -0.041 |
| AGTCCGCG | 0.0709 |
| GGGATACC | -0.156 |
| AAGCTTCT | -0.0165 |
| AGGATGGG | -0.248 |
| ACGCGAGT | -0.0923 |
| GGTCGACA | -0.0692 |
| AAAGAACG | 0.0238 |
| AACGTACC | -0.102 |
| AGTAACCG | 0.117 |
| ATTCGGCC | 0.292 |
| AAGGAACA | 0.0625 |
| GTGAATAA | 0.00485 |
| ATGCTTTG | 0.233 |
| AGACACAA | 0.215 |
| CGTAAAAA | 0.0901 |
| CAGTAGCA | -0.0779 |
| GGTGCAAA | 0.0127 |
| CACCCCCA | -0.206 |
| AAAGCACG | -0.11 |
| AAAGCGAG | 0.102 |
| AAGACCTG | -0.0984 |
| CCAAACAC | 0.0344 |
| GAAATTGA | 0.16 |
| AGTAAGAA | 0.15 |
| ACCGGTGA | 0.0385 |
| ATCTACCC | -0.0264 |
| AAAGCAAT | 0.166 |
| ACGAGGCC | -0.12 |
| AACGGGGG | -0.269 |
| AGATCAAC | -0.0455 |
| ATCTAAGC | -0.172 |
| GCCGAGTA | 0.262 |
| AAGATCCT | 0.0626 |
| ACCAAACT | -0.1 |
| GCTGTAAC | 0.0846 |
| AAGGCAAC | 0.0867 |
| ACAGATCT | 0.00119 |
| CTATTCAG | -0.0636 |
| CGTGTGGA | -0.122 |
| CAGTAATG | -0.0116 |
| GTCGCCGA | 0.219 |
| CATCCGGC | 0.358 |
| CCTCGGCC | 0.257 |
| AGCGACAG | -0.0265 |
| TGAATACA | 0.197 |
| AGGGCACC | -0.34 |
| CACCCGAG | -0.0578 |
| CTAACAGA | 0.179 |
| GAAAGAGC | -0.0552 |
| CCCAAACG | -0.17 |
| GGTGTAAC | 0.124 |
| CGAAAGAC | 0.14 |
| CATTAGTC | 0.0751 |
| GTAGTTGA | 0.0649 |
| CCAGGATA | -0.0425 |
| CTCAACGC | -0.232 |
| AACCTGAG | -0.132 |
| CTATCGCC | -0.124 |
| CAGATTCC | 0.0126 |
| ATACAATA | 0.275 |
| ATCAGAAG | -0.0418 |
| GATGTCCA | 0.117 |
| ATCCCTTG | -0.223 |
| CAAGGAAG | 0.085 |
| AAATGGTC | 0.0546 |
| CACGGCAA | 0.199 |
| TACGGAAA | 0.362 |
| ACTAAGCG | -0.0208 |

Source: the supplement of paper PMC3334620
